No constants are given. Whether binding was seen depends on the method and setting. In cells and extracts the contact can be indirect. Some binding calls cover weakened binding; strength is not graded here. Sequences can lack the tags named with a protein.
Target: T1, Immediate early response gene 3 protein (IER3), Flag-tagged, expressed in Huh7 cells (human) (UniProt P46695)
T1 sequence: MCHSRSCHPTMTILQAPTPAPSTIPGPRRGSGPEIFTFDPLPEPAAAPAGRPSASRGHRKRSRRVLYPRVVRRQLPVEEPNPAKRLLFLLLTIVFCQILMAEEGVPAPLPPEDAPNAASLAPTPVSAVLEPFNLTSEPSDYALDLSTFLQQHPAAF
Assay: co-IP; Huh7 cells co-transfected with Myc-TRAIL and Flag-IER3; RIPA lysates; IP with IER3- or Flag-antibody beads, reverse IP with anti-Myc or anti-TRAIL; 12 h at 4 °C; Western blot

Protein sequences, listed by entry. Tags and fused reporters are not part of them.
UniProt P50591: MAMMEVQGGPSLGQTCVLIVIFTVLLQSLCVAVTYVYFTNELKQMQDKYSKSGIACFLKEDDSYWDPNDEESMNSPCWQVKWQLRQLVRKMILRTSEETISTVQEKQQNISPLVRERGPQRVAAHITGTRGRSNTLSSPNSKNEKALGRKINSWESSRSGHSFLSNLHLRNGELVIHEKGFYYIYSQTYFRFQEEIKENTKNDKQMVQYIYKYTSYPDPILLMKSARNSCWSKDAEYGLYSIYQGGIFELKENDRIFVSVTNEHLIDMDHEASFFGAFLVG

Substance: Tumor necrosis factor-related apoptosis-inducing ligand (TRAIL), Myc-tagged (from UniProt P50591 1-281)
- binding: binds
